Measurements reported in patent publication US20220242961A1.
Results are given in words; binding and its absence hold for the method and conditions named. Some binding calls cover weakened binding; strength is not graded here.

Protein sequences, listed by entry. Tags and fused reporters are not part of them. Lines headed by an entry give the natural chain unless they say otherwise; changes in a name come on top. Residues count along the entry.
UniProt Q07011: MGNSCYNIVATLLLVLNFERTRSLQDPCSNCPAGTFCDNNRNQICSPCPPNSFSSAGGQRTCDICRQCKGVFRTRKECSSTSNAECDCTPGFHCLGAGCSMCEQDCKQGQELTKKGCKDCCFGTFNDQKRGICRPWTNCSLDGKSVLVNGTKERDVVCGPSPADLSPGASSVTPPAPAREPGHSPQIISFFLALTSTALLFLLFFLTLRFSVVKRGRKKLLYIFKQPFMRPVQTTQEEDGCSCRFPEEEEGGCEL
UniProt P41273, residues 71-254: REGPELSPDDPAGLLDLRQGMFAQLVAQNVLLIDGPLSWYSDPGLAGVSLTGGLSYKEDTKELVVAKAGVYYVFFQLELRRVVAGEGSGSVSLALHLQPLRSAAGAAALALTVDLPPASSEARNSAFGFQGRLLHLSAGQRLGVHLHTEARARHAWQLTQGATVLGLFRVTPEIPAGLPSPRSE

Tests used:
[1] = molecular target: Recombinant Human 41BB-His tag protein (Sino Biological, 10041-H08H) (human) (UniProt Q07011); assay: Octet, 41BB-His on Ni-NTA biosensor, sequential association at 100 nM
[2] = molecular target: Recombinant Human 41BB-His tag protein (Sino Biological, 10041-H08H) (human) (UniProt Q07011); assay: Octet BLI, 41BB-His captured on Ni-NTA biosensor, analyte 100 nM, first association step
[3] = molecular target: Recombinant Human 41BB-His tag protein (Sino Biological, 10041-H08H) (human) (UniProt Q07011); assay: Octet BLI, 41BB-His captured on Ni-NTA biosensor, analyte 100 nM, two sequential association steps (self-binding control)
[4] = molecular target: Recombinant Human 41BB-His tag protein (Sino Biological, 10041-H08H) (human) (UniProt Q07011); assay: Octet BLI, 41BB-His captured on Ni-NTA biosensor and first loaded with 41B01; recombinant human 41BB-ligand 100 nM as second analyte

- binding [1]: binds
- binding [2]: binds
- binding [3]: binds
- binding [4]: binds
Substance: Recombinant Human 41BB Ligand (from UniProt P41273 71-254)
